Results published in paper PMC6733923.
No constants are given. Whether binding was seen depends on the method and setting. Binding seen in cells or lysates may run through a third protein. A yes stands for co-enrichment or nearness to the bait. Other partners may have been found.

Sequences of proteins named here, by UniProt entry; tags and fusion partners are left off.
UniProt Q05397: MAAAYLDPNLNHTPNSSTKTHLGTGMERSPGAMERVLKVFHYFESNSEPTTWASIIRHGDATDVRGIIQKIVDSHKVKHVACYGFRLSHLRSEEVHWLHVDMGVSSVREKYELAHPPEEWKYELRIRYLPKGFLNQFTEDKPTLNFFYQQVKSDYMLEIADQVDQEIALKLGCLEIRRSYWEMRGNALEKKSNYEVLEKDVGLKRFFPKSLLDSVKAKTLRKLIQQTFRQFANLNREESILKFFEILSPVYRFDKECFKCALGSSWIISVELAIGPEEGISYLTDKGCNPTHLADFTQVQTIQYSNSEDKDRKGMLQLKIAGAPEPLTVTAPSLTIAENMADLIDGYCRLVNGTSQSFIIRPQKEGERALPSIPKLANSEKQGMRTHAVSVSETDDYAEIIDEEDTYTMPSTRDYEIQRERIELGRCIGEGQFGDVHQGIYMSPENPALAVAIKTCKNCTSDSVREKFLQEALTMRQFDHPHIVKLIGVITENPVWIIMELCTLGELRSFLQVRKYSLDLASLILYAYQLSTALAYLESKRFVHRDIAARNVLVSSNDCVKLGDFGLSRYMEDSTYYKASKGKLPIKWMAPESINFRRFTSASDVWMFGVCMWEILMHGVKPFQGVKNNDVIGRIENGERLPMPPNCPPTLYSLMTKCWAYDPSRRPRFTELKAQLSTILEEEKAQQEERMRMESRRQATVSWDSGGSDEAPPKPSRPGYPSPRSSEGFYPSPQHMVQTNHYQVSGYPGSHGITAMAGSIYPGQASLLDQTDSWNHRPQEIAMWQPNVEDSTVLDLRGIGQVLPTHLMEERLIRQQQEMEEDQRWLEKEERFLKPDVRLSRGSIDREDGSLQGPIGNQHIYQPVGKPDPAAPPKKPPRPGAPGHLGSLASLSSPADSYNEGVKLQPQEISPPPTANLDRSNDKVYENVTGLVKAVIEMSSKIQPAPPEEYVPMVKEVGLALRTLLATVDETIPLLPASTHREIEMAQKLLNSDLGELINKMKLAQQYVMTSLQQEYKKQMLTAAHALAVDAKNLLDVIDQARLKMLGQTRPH
UniProt O43707: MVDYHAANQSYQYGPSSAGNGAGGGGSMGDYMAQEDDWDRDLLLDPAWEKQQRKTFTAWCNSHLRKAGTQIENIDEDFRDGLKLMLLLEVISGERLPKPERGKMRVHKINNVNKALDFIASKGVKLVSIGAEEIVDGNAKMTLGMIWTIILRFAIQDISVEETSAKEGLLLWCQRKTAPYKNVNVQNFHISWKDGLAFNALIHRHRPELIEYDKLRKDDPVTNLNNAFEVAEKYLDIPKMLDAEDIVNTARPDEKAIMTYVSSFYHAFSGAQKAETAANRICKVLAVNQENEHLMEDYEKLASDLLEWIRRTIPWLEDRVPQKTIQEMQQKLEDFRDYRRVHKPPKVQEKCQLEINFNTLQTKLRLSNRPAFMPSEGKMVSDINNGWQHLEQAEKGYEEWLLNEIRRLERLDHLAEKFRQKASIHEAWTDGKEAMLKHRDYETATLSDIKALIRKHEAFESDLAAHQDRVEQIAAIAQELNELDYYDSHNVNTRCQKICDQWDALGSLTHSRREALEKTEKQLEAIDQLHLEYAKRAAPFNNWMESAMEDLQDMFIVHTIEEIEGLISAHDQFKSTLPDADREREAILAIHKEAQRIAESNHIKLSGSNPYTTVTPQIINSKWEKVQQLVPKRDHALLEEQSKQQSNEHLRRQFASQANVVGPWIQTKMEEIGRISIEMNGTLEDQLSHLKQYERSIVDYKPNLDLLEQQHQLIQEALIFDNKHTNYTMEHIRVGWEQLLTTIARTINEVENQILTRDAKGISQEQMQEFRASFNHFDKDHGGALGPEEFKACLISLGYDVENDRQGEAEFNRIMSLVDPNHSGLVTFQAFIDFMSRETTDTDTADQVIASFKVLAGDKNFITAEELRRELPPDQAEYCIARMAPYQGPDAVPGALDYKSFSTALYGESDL
UniProt Q99496: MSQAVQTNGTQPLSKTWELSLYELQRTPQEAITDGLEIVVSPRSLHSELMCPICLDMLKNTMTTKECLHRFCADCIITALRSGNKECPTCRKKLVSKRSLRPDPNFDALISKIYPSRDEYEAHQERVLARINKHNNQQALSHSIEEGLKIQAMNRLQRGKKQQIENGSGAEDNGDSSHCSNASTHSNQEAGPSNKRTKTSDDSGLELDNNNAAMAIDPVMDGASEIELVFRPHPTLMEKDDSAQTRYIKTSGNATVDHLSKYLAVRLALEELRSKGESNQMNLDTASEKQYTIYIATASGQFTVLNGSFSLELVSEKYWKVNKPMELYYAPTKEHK
UniProt O15371: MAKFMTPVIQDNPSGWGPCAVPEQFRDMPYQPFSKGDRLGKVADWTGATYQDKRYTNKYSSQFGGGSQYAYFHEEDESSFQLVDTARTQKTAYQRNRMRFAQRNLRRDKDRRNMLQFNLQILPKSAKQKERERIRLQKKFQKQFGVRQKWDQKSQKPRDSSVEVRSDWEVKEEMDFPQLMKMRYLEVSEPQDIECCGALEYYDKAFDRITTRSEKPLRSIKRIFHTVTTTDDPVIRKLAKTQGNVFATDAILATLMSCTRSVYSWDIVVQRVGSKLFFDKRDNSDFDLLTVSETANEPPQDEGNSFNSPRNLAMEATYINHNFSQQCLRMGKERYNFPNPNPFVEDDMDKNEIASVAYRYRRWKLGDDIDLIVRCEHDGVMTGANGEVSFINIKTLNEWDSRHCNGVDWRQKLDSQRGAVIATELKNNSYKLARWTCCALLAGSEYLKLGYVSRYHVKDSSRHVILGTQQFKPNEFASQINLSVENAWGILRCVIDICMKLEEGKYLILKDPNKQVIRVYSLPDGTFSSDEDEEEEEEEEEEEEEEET
UniProt Q5D862: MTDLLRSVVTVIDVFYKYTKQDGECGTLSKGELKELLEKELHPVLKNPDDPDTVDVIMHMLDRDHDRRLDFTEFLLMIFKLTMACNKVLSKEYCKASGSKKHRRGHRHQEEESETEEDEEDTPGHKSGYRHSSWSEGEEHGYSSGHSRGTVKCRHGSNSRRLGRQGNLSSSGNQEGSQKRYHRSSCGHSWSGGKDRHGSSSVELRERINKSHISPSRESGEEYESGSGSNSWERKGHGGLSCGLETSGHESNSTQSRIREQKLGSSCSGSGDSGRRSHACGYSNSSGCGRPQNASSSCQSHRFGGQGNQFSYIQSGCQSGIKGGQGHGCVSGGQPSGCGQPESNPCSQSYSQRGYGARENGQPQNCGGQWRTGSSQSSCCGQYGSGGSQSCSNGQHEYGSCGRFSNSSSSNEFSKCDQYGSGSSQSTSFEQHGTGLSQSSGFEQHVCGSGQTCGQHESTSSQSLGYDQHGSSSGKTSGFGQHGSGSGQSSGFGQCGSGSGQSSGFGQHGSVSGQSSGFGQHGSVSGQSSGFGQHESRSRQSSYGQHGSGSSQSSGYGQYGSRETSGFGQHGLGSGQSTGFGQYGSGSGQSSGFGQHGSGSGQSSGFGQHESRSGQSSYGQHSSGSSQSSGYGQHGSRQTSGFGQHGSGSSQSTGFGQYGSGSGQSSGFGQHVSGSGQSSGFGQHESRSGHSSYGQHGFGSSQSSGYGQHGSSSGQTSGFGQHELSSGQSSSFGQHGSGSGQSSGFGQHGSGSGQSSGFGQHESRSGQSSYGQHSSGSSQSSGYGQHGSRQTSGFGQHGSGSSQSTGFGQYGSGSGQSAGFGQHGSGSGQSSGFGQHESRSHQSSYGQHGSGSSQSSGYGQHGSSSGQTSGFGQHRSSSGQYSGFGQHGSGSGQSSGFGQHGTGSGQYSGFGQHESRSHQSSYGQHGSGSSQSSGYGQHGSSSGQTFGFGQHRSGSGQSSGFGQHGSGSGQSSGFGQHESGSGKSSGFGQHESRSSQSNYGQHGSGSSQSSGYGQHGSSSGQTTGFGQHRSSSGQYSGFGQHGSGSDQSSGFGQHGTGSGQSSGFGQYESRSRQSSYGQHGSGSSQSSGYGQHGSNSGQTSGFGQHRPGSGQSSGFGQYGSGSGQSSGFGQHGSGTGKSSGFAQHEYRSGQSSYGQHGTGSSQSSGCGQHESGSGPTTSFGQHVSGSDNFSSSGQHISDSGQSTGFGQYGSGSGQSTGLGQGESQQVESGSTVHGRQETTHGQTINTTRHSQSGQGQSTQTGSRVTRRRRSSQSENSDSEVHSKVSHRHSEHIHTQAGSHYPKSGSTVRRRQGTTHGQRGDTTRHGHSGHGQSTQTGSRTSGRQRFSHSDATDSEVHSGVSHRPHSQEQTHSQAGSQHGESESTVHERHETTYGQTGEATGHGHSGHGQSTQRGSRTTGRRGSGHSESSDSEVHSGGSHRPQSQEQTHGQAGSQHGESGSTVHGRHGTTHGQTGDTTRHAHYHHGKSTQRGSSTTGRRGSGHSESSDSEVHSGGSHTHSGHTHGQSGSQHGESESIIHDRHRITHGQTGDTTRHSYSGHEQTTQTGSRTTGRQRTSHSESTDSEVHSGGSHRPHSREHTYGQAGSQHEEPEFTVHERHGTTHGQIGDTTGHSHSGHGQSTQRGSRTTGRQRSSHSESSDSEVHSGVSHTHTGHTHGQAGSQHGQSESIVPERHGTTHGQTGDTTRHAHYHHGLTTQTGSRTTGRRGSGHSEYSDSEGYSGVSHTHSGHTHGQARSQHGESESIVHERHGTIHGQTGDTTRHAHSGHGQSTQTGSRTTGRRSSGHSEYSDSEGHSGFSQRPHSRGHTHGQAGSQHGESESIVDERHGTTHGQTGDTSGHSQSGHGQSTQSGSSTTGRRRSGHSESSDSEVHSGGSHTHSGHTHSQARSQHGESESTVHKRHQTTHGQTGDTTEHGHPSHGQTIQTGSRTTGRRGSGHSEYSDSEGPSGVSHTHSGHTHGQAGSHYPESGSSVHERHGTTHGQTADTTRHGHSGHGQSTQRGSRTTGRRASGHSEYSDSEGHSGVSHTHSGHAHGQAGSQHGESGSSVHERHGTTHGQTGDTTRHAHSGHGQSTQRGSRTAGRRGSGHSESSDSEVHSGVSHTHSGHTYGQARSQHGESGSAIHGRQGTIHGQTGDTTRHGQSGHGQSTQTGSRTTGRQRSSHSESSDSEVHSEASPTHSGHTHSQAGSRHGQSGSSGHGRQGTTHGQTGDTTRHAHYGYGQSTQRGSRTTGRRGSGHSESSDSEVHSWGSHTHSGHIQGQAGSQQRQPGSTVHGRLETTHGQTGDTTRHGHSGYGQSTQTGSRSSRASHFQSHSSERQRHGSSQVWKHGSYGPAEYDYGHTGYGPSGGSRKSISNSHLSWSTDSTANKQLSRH
UniProt P14902: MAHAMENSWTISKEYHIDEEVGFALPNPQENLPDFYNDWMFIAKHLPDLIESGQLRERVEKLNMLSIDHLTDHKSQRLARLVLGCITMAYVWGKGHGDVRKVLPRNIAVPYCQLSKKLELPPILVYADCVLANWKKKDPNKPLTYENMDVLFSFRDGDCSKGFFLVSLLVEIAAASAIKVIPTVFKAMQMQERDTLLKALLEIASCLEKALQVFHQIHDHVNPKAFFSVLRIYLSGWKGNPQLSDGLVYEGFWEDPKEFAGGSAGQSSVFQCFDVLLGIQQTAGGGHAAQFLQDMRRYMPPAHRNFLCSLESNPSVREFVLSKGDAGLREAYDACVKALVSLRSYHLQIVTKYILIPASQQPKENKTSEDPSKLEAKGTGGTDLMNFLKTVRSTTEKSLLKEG
UniProt Q6NVV1: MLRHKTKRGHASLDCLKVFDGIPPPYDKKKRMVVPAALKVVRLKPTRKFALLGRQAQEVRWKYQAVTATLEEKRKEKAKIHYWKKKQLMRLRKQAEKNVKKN
UniProt Q13283: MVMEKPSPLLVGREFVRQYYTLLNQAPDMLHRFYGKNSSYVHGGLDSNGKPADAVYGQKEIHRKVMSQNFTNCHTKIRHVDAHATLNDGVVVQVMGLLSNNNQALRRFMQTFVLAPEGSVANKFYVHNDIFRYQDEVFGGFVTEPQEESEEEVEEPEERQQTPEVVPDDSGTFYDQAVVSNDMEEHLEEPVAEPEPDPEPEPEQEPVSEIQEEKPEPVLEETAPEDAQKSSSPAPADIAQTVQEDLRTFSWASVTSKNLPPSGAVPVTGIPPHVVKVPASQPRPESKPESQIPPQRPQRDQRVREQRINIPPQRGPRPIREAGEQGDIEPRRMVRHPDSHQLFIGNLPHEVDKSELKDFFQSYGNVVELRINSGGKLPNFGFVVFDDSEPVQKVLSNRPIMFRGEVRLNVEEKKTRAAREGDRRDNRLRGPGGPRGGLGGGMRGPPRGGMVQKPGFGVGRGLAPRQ
UniProt P62140: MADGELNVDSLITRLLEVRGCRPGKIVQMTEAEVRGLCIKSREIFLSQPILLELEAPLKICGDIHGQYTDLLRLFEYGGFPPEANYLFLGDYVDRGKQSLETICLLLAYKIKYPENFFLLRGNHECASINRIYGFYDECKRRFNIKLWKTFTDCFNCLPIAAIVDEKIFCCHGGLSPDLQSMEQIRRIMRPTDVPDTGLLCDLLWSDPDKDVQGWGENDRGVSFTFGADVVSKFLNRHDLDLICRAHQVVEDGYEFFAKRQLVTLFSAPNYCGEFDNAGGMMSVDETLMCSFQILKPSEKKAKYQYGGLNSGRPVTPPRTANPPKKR

Target: Focal adhesion kinase 1 (human (endogenous in HCT-116)) (UniProt Q05397)
Assay: affinity purification with mass spectrometry; anti-FAK polyclonal antibody and Protein A/G agarose on 1.5 mg HCT-116 total cell lysate, cells untreated (regular IP) or stimulated with 10 ng/ml EGF for 30 min; rabbit IgG as control; 1D SDS-PAGE, in-gel trypsin digestion, nano-LC-MS/MS; the proteins of Table 2 were found only with EGF …

binding, binds:
5′-3′ exoribonuclease 1 (from UniProt Q8IZH2-1 1-1706)
ATP-dependent RNA helicase DDX3X (from UniProt O00571 1-662)
Alpha-actinin-4 (from UniProt O43707 1-911)
Annexin A2 (from UniProt P07355 1-339)
Cleavage and polyadenylation specificity factor subunit 6 (from UniProt Q16630-2 1-588)
Desmoplakin (from UniProt P15924-1 1-2871)
E3 ubiquitin-protein ligase RING2 (from UniProt Q99496 1-336)
ELAV-like protein 1 (from UniProt Q15717 1-326)
Elongation factor 1-alpha 1 (from UniProt P68104 1-462)
Eukaryotic translation initiation factor 3 subunit D (from UniProt O15371 1-548)
Filaggrin-2 (from UniProt Q5D862 1-2391)
Filamin-A (from UniProt P21333 1-2647)
Filamin-C (from UniProt Q14315 1-2725)
Growth factor receptor-bound protein 7 (from UniProt Q14451 1-532)
Heat shock protein HSP 90-beta (from UniProt P08238 1-724)
Heterogeneous nuclear ribonucleoprotein A3 (from UniProt P51991-1 1-378)
Indoleamine 2,3-dioxygenase 1 (from UniProt P14902 1-403)
Interleukin-1 receptor type 1 (from UniProt P14778 18-569)
Isoform 2 of Unconventional myosin-Ic (from UniProt O00159-2 1-1028)
Isoform 3 of LIM domain and actin-binding protein 1 (from UniProt Q9UHB6-3 1-457)
Isoform 4 of Alpha-actinin-1 (from UniProt P12814-4 1-930)
Isoform 4 of Band 4.1-like protein 5 (from UniProt Q9HCM4-4 1-687)
Isoform 8 of Filamin-B (from UniProt O75369-8 1-2633)
Isoform Mitochondrial of Lysine–tRNA ligase (from UniProt Q15046-2 1-625)
Lamin-B1 (from UniProt P20700 1-586)
Microtubule-associated protein 4 (from UniProt P27816-1 1-1152)
Nesprin-1 (from UniProt Q8NF91 1-8797)
Poly(RC)-binding protein 1 (from UniProt Q15365 1-356)
Protein regulator of cytokinesis 1 (from UniProt O43663-1 1-620)
Putative 60 S ribosomal protein L13a protein RPL13AP3 (from UniProt Q6NVV1 1-102)
RNA binding motif protein, X-linked-like-1 (from UniProt Q96E39 1-390)
Ras GTPase-activating protein-binding protein 1 (from UniProt Q13283 1-466)
SLIT-ROBO Rho GTPase-activating protein 2 (from UniProt O75044 1-1071)
Serine/threonine-protein phosphatase PP1-beta catalytic subunit (from UniProt P62140 1-327)
Spectrin beta chain, non-erythrocytic 1 (from UniProt Q01082-1 1-2364)
Stress-70 protein, mitochondrial (from UniProt P38646 47-679)
Target of EGR1 protein 1 (from UniProt Q96GM8 1-510)
Tight junction protein ZO-1 (from UniProt Q07157 1-1748)
UPF0488 protein C8orf33 (from UniProt Q9H7E9-1 1-229)
Unconventional myosin-Ib (from UniProt O43795 1-1136)
exosome complex component RRP40 (from UniProt Q9NQT5 1-275)
immunoglobulin kappa variable 3D-7 (from UniProt A0A0C4DH55 24-119)
probable ATP-dependent RNA helicase DDX5 (from UniProt P17844 1-614)
splicing factor 3B subunit 1 (from UniProt O75533-1 1-1304)
voltage-dependent anion-selective channel protein 1 (from UniProt P21796 1-283)
